These are yes or no findings as the source states them, for the method shown. In cells and extracts the contact can be indirect. A yes stands for co-enrichment or nearness to the bait. Other partners may have been found.
Target: T1, CD63 (mouse (endogenous in hippocampo-septal synaptosomes and in primary hippocampal neurons)) (UniProt P41731)
T1 sequence: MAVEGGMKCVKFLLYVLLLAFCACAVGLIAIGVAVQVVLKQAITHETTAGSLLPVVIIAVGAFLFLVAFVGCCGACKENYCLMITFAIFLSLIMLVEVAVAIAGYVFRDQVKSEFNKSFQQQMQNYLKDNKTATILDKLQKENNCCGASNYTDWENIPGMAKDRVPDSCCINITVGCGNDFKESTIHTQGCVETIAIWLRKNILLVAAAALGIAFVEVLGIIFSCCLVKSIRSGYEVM
Assay: affinity purification with mass spectrometry; 3 µg anti-CD63 (Sicgen) with 0.5 mg/ml hippocampo-septal synaptosomal lysate of 6-month-old WT and 5xFAD mice, overnight at 4 °C, Dynabeads Protein G, washed with Syn-PER reagent, eluted in 8 M urea lysis buffer, LC-MS/MS; abundance compared between 5xFAD and WT

binding: binds
B1: charged multivesicular body protein 3 (Chmp3) (protein, UniProt Q9CQ10 1-224)
chain: MGLFGKTQEKPPKELVNEWSLKIRKEMRVVDRQIRDIQREEEKVKRSVKDAAKKGQKEVCVVLAKEMIRSRKAVSKLYASKAHMNSVLMGMKNQLAVLRVAGSLQKSTEVMKAMQSLVKIPEIQATMRELSKEMMKAGIIEEMLEDTFESMDDQEEMEEAAEMEIDRILFEITAGALGKAPSKVTDALPEPEPAGAMAASEEGEEEEDEEDLEAMQSRLATLRS
